Reference: US20160115235A1
No constants are given. Whether binding was seen depends on the method and setting. Some results given as binding are weak or reduced against the parent protein; the word gives no strength.

Chains of the proteins cited; added tags and fusions are not shown. Lines headed by an entry give the natural chain unless they say otherwise; changes in a name come on top.
UniProt P32302: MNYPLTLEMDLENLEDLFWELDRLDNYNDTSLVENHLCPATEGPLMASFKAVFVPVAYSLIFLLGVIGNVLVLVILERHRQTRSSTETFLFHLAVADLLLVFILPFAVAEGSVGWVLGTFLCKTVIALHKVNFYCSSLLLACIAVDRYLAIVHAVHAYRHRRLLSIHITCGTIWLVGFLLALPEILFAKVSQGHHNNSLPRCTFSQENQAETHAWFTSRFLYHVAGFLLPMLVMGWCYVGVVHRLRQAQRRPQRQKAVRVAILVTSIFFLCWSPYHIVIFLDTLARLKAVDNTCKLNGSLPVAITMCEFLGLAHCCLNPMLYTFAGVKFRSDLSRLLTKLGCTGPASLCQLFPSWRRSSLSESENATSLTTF

Columns and labels:
[1] = target: human CXCR5 (human) (UniProt P32302); assay: FACS on CXCR5 expressing cells
[2] = target: cynomolgus monkey (Macaca fascicularis) CXCR5 (cynomolgus monkey (Macaca fascicularis)); assay: FACS on CXCR5 expressing cells

| Binder | binding [1] | binding [2] |
| --- | --- | --- |
| mAb 80A10 (antibody, V domains shown) VH: EVQLLESGGGLVQPGGSLRLSCAASGFTFSMYVMKWVRQAPGKGLEWVSGIRSSGGDTSYADSVKGRFTISRDNSKNTLYLQMNSLRAEDTAVYYCARQSRYCNGGSCYSRAFDIWGQGTMVTVSS VL: QPPSASGTPGQRVTISCFGSNSNIGSTYAYWYQQVPGTAPKLLIYRNNQRPSGVPDRFSGSKSGTSASLAISGLRSEDEADYYCAAWDVNLSGHWVFGGGTKLTVLG | binds |  |
| mAb 42F03 (antibody, human IgG1, V domains shown) VH: EVQLLESGGGLVQPGGSLRLSCAASGFTFSWYPMTWVRQAPGKGLEWVSYIRSSGGFTKYADSVKGRFTISRDNSKNTLYLQMNSLRAEDTAVYYCARGLYRWGQGTLVTVSS VL: IQMTQSPGTLSLSPGERATLSCRASQSVSNNYLAWYQQKPGQAPRLLISGASRRATDIADRFSGSGSGTDFTLTISRLEPEDFAVYYCQQYDSFPLTFGGGTKVEIK | binds | binds |
